From publication PMC5323046
Results are given in words; binding and its absence hold for the method and conditions named. Binding seen in cells or lysates may run through a third protein. Here binding means that the protein was enriched with, or labelled near, the bait; the list need not be complete. For some of these results: Sequences can lack the tags named with a protein.

By UniProt entry, the sequences of proteins in these tests, tags left out.
UniProt P51159: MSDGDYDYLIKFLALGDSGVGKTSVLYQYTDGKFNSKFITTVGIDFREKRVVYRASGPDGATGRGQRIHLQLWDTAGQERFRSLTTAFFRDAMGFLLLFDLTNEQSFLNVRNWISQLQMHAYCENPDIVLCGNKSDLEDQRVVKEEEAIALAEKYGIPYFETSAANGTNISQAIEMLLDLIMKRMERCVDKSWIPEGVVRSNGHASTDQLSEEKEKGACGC

T1: HA-tagged full-length SMCR8 (human) (UniProt Q8TEV9)
T1 sequence: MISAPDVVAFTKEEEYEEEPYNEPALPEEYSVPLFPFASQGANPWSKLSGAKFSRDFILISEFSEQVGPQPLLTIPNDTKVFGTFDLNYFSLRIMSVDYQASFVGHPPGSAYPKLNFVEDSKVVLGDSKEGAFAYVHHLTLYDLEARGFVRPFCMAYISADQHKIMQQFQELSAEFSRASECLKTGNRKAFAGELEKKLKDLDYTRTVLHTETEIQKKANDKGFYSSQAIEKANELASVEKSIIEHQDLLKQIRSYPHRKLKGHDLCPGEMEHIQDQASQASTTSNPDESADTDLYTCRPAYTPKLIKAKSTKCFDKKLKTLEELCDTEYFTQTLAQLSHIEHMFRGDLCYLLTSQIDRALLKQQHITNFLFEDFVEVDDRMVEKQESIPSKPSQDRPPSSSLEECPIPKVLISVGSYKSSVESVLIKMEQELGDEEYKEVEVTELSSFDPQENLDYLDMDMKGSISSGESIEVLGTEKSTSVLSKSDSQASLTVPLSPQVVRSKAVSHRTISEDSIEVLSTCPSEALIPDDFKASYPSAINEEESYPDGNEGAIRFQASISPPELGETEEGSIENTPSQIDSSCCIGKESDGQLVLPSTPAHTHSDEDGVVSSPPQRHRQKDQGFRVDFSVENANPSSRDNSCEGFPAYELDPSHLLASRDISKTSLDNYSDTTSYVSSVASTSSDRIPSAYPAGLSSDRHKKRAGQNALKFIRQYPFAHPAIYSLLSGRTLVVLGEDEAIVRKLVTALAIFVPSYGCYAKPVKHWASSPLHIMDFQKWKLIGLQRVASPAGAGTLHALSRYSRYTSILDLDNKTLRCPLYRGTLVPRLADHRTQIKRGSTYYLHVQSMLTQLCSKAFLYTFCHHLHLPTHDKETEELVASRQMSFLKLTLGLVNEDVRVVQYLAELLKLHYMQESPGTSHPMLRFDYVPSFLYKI

T2: HA-tagged RAB27B (human) (UniProt O00194)
T2 sequence: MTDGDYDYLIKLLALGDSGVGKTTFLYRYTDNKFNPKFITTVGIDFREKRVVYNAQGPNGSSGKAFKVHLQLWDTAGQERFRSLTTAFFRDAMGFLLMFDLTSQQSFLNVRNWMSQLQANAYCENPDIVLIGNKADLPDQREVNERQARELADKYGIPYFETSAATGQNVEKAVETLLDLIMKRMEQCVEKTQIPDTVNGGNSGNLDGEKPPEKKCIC


Columns and labels:
Test in all cases: affinity purification with mass spectrometry; 293T-REx cells inducibly expressing N-terminally HA-tagged baits; lysis in MCLB (50 mM Tris pH 7.4, 150 mM NaCl, 0.5% NP40); anti-HA-agarose, elution with HA peptide, trypsin, LC-MS/MS; CompPASS, HCIPs with WDN >=1 and APSM >=2
[1] = molecular target: T1, HA-tagged full-length SMCR8 (human)
[2] = molecular target: HA-tagged RAB27A (Ras-related protein Rab-27A) (human) (UniProt P51159)
[3] = molecular target: T2, HA-tagged RAB27B (human)

| binding [1] | binding [2] | binding [3] | Binder |
| --- | --- | --- | --- |
| binds | – | – | NUBPL (protein, UniProt Q8TB37 39-319) GAGSETLKQRRTQIMSRGLPKQKPIEGVKQVIVVASGKGGVGKSTTAVNLALALAANDSSKAIGLLDVDVYGPSVPKMMNLKGNPELSQSNLMRPLLNYGIACMSMGFLVEESEPVVWRGLMVMSAIEKLLRQVDWGQLDYLVVDMPPGTGDVQLSVSQNIPITGAVIVSTPQDIALMDAHKGAEMFRRVHVPVLGLVQNMSVFQCPKCKHKTHIFGADGARKLAQTLGLEVLGDIPLHLNIREASDTGQPIVFSQPESDEAKAYLRIAVEVVRRLPSPSE |
| – | binds | binds | SYTL4 (protein, UniProt Q96C24 1-671) MSELLDLSFLSEEEKDLILSVLQRDEEVRKADEKRIRRLKNELLEIKRKGAKRGSQHYSDRTCARCQESLGRLSPKTNTCRGCNHLVCRDCRIQESNGTWRCKVCAKEIELKKATGDWFYDQKVNRFAYRTGSEIIRMSLRHKPAVSKRETVGQSLLHQTQMGDIWPGRKIIQERQKEPSVLFEVPKLKSGKSALEAESESLDSFTADSDSTSRRDSLDKSGLFPEWKKMSAPKSQVEKETQPGGQNVVFVDEGEMIFKKNTRKILRPSEYTKSVIDLRPEDVVHESGSLGDRSKSVPGLNVDMEEEEEEEDIDHLVKLHRQKLARSSMQSGSSMSTIGSMMSIYSEAGDFGNIFVTGRIAFSLKYEQQTQSLVVHVKECHQLAYADEAKKRSNPYVKTYLLPDKSRQGKRKTSIKRDTINPLYDETLRYEIPESLLAQRTLQFSVWHHGRFGRNTFLGEAEIQMDSWKLDKKLDHCLPLHGKISAESPTGLPSHKGELVVSLKYIPASKTPVGGDRKKSKGGEGGELQVWIKEAKNLTAAKAGGTSDSFVKGYLLPMRNKASKRKTPVMKKTLNPHYNHTFVYNGVRLEDLQHMCLELTVWDREPLASNDFLGGVRLGVGTGISNGEVVDWMDSTGEEVSLWQKMRQYPGSWAEGTLQLRSSMAKQKLGL |
| binds | – | – | GLRX5 (protein, UniProt Q86SX6 32-157) AGSGAGGGGSAEQLDALVKKDKVVVFLKGTPEQPQCGFSNAVVQILRLHGVRDYAAYNVLDDPELRQGIKDYSNWPTIPQVYLNGEFVGGCDILLQMHQNGDLVEELKKLGIHSALLDEKKDQDSK |
| binds | – | – | HPS6 (protein, UniProt Q86YV9 1-775) MKRSGTLRLLSDLSAFGGAARLRELVAGDSAVRVRGSPDGRHLLLLRPPGAVAPQLLVASRGPGAELERAWPAGQPSPLDAFFLPWPARPALVLVWESGLAEVWGAGVGPGWRPLQSTELCPGGGARVVAVAALRGRLVWCEERQARAEGPSGSPAAAFSHCVCVRTLEPSGEASTSLGRTHVLLHHCPAFGLLASCRQLFLVPTATTWPGVAHVLLIWSPGKGKVMVAAPRLGLSYSKSLNPGRGDTWDFRTLLRGLPGLLSPREPLAVHTWAPTPQGLLLLDFGGTVSLLQSHGGTRAVGTLQEAPVGPWGSAALGTFQGTLACVLGSTLELLDMGSGQLLERKVLSTDRVHLLEPPAPGMEDEEELETRGNLRLLSALGLFCVGWEAPQGVELPSAKDLVFEEACGYYQRRSLRGAQLTPEELRHSSTFRAPQALASILQGHLPPSALLTMLRTELRDYRGLEQLKAQLVAGDDEEAGWTELAEQEVARLLRTELIGDQLAQLNTVFQALPTAAWGATLRALQLQLDGNGKLRSQAPPDVWKKVLGGITAGKEPPNGILPPFELLCQCLCQLEPRWLPPFVELAQQQGGPGWGAGGPGLPLYRRALAVLGEEGTRPEALELELLLSSGRPKAVLQAVGQLVQKEQWDRALDAGLALGPSSPLLRSEIFKLLLAEFAQHRRLDAHLPLLCRLCPPELAPAELLLLLRTYLPDEVGPPTPFPEPGAEPPLTVGLLKALLEQTGAQGWLSGPVLSPYEDILWDPSTPPPTPPRDL |
| – | binds | – | SLC33A1 (protein, UniProt O00400 1-549) MSPTISHKDSSRQRRPGNFSHSLDMKSGPLPPGGWDDSHLDSAGREGDREALLGDTGTGDFLKAPQSFRAELSSILLLLFLYVLQGIPLGLAGSIPLILQSKNVSYTDQAFFSFVFWPFSLKLLWAPLVDAVYVKNFGRRKSWLVPTQYILGLFMIYLSTQVDRLLGNTDDRTPDVIALTVAFFLFEFLAATQDIAVDGWALTMLSRENVGYASTCNSVGQTAGYFLGNVLFLALESADFCNKYLRFQPQPRGIVTLSDFLFFWGTVFLITTTLVALLKKENEVSVVKEETQGITDTYKLLFAIIKMPAVLTFCLLILTAKIGFSAADAVTGLKLVEEGVPKEHLALLAVPMVPLQIILPLIISKYTAGPQPLNTFYKAMPYRLLLGLEYALLVWWTPKVEHQGGFPIYYYIVVLLSYALHQVTVYSMYVSIMAFNAKVSDPLIGGTYMTLLNTVSNLGGNWPSTVALWLVDPLTVKECVGASNQNCRTPDAVELCKKLGGSCVTALDGYYVESIICVFIGFGWWFFLGPKFKKLQDEGSSSWKCKRNN |
| – | binds | binds | SYTL1 (protein, UniProt Q8IYJ3 1-562) MPQRGHPSQEGLWALPSLPMAHGPKPETEGLLDLSFLTEEEQEAIAGVLQRDARLRQLEEGRVSKLRASVADPGQLKILTGDWFQEARSQRHHNAHFGSDLVRASMRRKKSTRGDQAPGHDREAEAAVKEKEEGPEPRLTIDEAPQERLRETEGPDFPSPSVPLKASDPEEASQAQEDPGQGDQQVCAEEADPELEPASGGEQEPRPQQAQTKAASQILENGEEAPGPDPSLDRMLSSSSSVSSLNSSTLSGSQMSLSGDAEAVQVRGSVHFALHYEPGAAELRVHVIQCQGLAAARRRRSDPYVKSYLLPDKQSKRKTAVKKRNLNPVFNETLRYSVPQAELQGRVLSLSVWHRESLGRNIFLGEVEVPLDTWDWGSEPTWLPLQPRVPPSPDDLPSRGLLALSLKYVPAGSEGAGLPPSGELHFWVKEARDLLPLRAGSLDTYVQCFVLPDDSQASRQRTRVVRRSLSPVFNHTMVYDGFGPADLRQACAELSLWDHGALANRQLGGTRLSLGTGSSYGLQVPWMDSTPEEKQLWQALLEQPCEWVDGLLPLRTNLAPRT |
| – | binds | binds | MYRIP (protein, UniProt Q8NFW9 1-859) MGRKLDLSGLTDDETEHVLQVVQRDFNLRKKEEERLSELKQKLDEEGSKCSILSKHQQFVEHCCMRCCSPFTFLVNTKRQCGDCKFNVCKSCCSYQKHEKAWVCCVCQQARLLRAQSLEWFYNNVKSRFKRFGSAKVLKNLYRKHRLESGACFDILGGSLFESNLENEGSISGSDSTFYRQSEGHSVMDTLAVALRVAEEAIEEAISKAEAYGDSLDKQNEASYLRDHKEELTEELATTILQKIIRKQKSKSEQQVEEEPGWPHPQSCSTKVADEGTSASPGGYRAPAALWRSQSAFSITGEEALKTPPVEAPSRQPRDQGQHPRAESALPSWKSVDRLDETNLAPVLQSPDGNWVALKDGAPPPTRLLAKPKSGTFQALEVASSVASAYDEMGSDSEEDFDWSEALSKLCPRSRALPRNPQPQPTQAQSSDQGPIAASPSSALSPNPEAMCSDSETSSAGSSREVGHQARLSWLQRKAPRNPAAEKMRLHGELDVNFNPQLASRETSDSSEPEEAPHTTDRRARRWRRARLGSEEPSKEPSSPSAQLRDLDTHQVSDDLSETDISNEARDPQTLTDTTEEKRRNRLYELAMKMSEKETSSGEDQESEPKTESENQKESLSSEDNSQSVQEELKKKFSAVSLCNISTEVLKVINATEELIAGSTGPWESPQVPPDRQKGMFPRGTDQVRLDEQLTSLEENVYLAAGTVYGLETQLTELEDAARCIHSGTDETHLADLEDQVATAAAQVHHAELQISDIESRISALTIAGLNIAPCVRFTRRRDQKQRTQVQTIDTSRQQRRKLPAPPVKAEKIETSSVTTIKTFNHNFILQGSSTNRTKERKGTTKDLMEPALESAVMY |
